PubChem BioAssay AID1259424 | University of Nebraska Medical Center – 2018

Screen: 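Rank knockdowns across the genome by resemblance to the KSR1 depletion profile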 (primary screen)
System: human HCT116 colon cancer cells
Knock-down reagent: siRNA pool against human genes, 50 nM
Detection: 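Log2 levels of six mRNAs (branched-DNA multiplex), adjusted by two reference genes and the non-targeting median, then scored against the average KSR1 knockdown pattern as Pearson r and euclidean distance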
Scale: mean correlation with KSR1 profile and KSR1 correlation: higher = expression change more like KSR1 knockdown; mean distance from KSR1 profile: higher = expression change less like KSR1 knockdown
The whole screen tested about 14,000 reagents; below is a part drawn at random. 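Higher correlation or smaller distance means closer resemblance to KSR1 loss; control wells, including KSR1 knockdowns, recur on many plates.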 Not stated in the record: the time to read-out.

target	mean correlation with KSR1 profile	mean distance from KSR1 profile	KSR1 correlation, replicate 1	KSR1 correlation, replicate 2	KSR1 correlation, replicate 3
JPT2	0.799	2.5	0.784	0.829	0.612
ADAM10	-0.656	2.81	-0.657	-0.593	-0.712
ZNF384	-0.175	2.49	-0.0011	-0.0636	-0.159
BCL2L14	-0.596	2.74	-0.75	-0.53	-0.58
SIX1	0.144	1.53	0.0857	0.566	-0.561
DGAT2	-0.556	2.9	-0.516	-0.415	-0.761
FBLN5	-0.453	1.89	-0.104	-0.466	-0.635
MIXL1	-0.214	2.4	0.29	-0.118	-0.375
SPAG8	-0.374	1.75	-0.177	-0.506	-0.251
CYBB	-0.351	2.88	-0.238	-0.476	-0.435
MAST4	-0.384	1.75	0.00789	-0.315	-0.881
TRIM32	0.0667	2.47	0.158	-0.0634	-0.0586
UGT1A4	-0.0264	3.18	0.0648	-0.11	-0.195
CD300LF	-0.476	2.68	-0.515	-0.369	-0.655
LHX2	-0.0206	1.58	-0.144	0.163	0.134
PPME1	-0.131	1.6	-0.362	0.066	-0.127
OAZ1	0.486	0.835	0.478	0.303	0.488
CDX2	0.394	1.52	0.278	0.718	0.402
HS3ST3A1	-0.163	2.96	0.0387	-0.485	-0.0656
IGHG3	-0.156	2.23	-0.115	-0.257	-0.168
KCNQ1DN	0.216	3.57	0.279	0.0798	0.109
ADGRG6	0.487	1.93	0.33	0.642	0.457
ASCL2	-0.185	1.76	-0.153	-0.23	-0.301
MYBBP1A	0.287	3.96	0.126	0.351	0.333
RLN2	0.442	2.04	0.376	0.479	0.502
BEX2	0.196	2.44	0.214	0.393	-0.186

Sorted by “KSR1 correlation, replicate 3” (highest first): some entries from above.
target	mean correlation with KSR1 profile	mean distance from KSR1 profile	KSR1 correlation, replicate 1	KSR1 correlation, replicate 2	KSR1 correlation, replicate 3
KCNQ1DN	0.216	3.57	0.279	0.0798	0.109
HS3ST3A1	-0.163	2.96	0.0387	-0.485	-0.0656
IGHG3	-0.156	2.23	-0.115	-0.257	-0.168

Additional records:
target	mean correlation with KSR1 profile	mean distance from KSR1 profile	KSR1 correlation, replicate 1	KSR1 correlation, replicate 2	KSR1 correlation, replicate 3
SLITRK3	-0.712	2.39	-0.563	-0.712	-0.677
ZNF43	-0.163	1.94	-0.115	-0.031	0.00601
TXNRD2	-0.505	1.94	-0.453	-0.565	-0.515
NEK6	0.786	1.56	0.842	0.814	0.669
GALT	0.382	3.88	0.366	0.294	0.222
HERC6	-0.465	2.45	-0.223	-0.508	-0.734
SBNO1	-0.491	1.93	-0.645	-0.511	-0.563
CR1	0.414	1.18	0.513	0.454	0.361
CCT6B	0.129	1.6	-0.095	0.0503	0.228
ANTXR1	0.57	1.6	0.395	0.585	0.671
HSPA8	0.037	1.57	0.216	-0.0458	-0.328
INPP5D	0.225	2.92	0.113	0.31	0.156
ALPP	-0.383	2.82	-0.21	-0.484	-0.334
DNASE1L2	-0.484	2.01	-0.226	-0.646	-0.758
DDX3X	0.293	1.92	0.298	0.389	0.0929
RASGRF1	-0.512	3.44	-0.458	-0.365	-0.702
BTG3	-0.305	1.69	-0.422	-0.269	-0.0313
APOC2	-0.0672	2.62	0.216	-0.109	-0.262
ECI1	0.0703	2.83	0.0975	-0.055	0.221
ZNF510	-0.191	2.36	0.000333	-0.269	-0.172
TRDMT1	-0.569	3.39	-0.562	-0.661	-0.58
LPL	0.321	3.08	0.268	0.294	0.308
SLC29A3	-0.514	3.04	-0.487	-0.58	-0.441
KANSL2	-0.828	2.09	-0.597	-0.819	-0.784
